# Reference: PubChem BioAssay (NCATS)
# The other results are listed elsewhere or left out. The main result of the screen is listed elsewhere. These columns were measured beside it and carry no call. The list favours compounds with an active or inconclusive main result. Words in brackets tell the shape of the fitted curve; partial curves, single points and poor fits give uncertain potencies.
# Test: qHTS assay for small molecule antagonists of peroxisome proliferator-activated receptor gamma signaling (AID 588537)
# Details: HEK293 PPARg-UAS-bla, beta-lactamase ratio, antagonist mode; measured here: W460 blue channel
# Method in brief: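 Antagonist-mode β-lactamase reporter screen run as a titration series. HEK293 PPARγ-UAS-bla cells are stimulated with rosiglitazone (50 nM final) for 16 h, then CCF4 is read at 460/530 nm. Data are scaled between DMSO and rosiglitazone and fitted to the Hill equation.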
row,SMILES,AC50
1,BrCCc1ccccc1,"50.1 µM [rising, single point]"
2,O=[As](O)(O)O,"0.000251 µM [falling, full curve, poor fit]"
3,ClCCCCl,"50.1 µM [rising, single point]"
